Results of single-concentration screens

By UniProt entry, the sequences of proteins in these tests, tags left out.
UniProt P9WFT3, whole entry: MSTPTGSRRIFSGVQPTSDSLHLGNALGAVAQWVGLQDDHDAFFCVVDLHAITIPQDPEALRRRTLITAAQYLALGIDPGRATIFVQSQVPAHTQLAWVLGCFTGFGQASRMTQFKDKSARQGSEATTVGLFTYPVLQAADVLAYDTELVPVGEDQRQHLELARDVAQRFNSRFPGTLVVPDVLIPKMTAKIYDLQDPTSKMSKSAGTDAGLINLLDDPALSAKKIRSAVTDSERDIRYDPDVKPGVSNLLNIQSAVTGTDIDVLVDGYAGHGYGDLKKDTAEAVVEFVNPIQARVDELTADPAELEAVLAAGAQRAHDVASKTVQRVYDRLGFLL

The values are deposited in ChEMBL (CHEMBL3988442, “University of Dundee, Small-Polar-MMV Screening Library” (2021)).

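Enzyme assay of tryptophanyl-tRNA synthetase; the read-out is not stated. Target: Tryptophan-tRNA ligase, Mycobacterium tuberculosis (UniProt P9WFT3). Compounds at 10 µM. Direction is not recorded; retested compounds ran higher, which suggests that high means inhibition. Size under these conditions: about 65,000 compounds, about 64 of them at 50% or above in at least one test.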

Values are the deposited “Percent Effect”, in %. The record does not define 0% and 100%; most values in the screen are far below 50% and negative numbers occur (in some assays of this library far below -100). This is an unselected part of the compounds tested.

SMILES | effect
Cc1ccc(CN[C@@H]2CO[C@H](CNS(=O)(=O)c3ccccc3)[C@H]2O)cc1 | -1.138%
Cc1nn(C)c2ncc(NC(=O)N3CCCCCC3)cc12 | -2.225%
COc1cc(C)ccc1OCC(=O)NS(=O)(=O)c1cccnc1 | 0.1971%
CCn1cnnc1C1CCN(C(=O)c2ccccc2OC)CC1 | -1.998%
CCN(CCO)C[C@@H]1CN(C(=O)c2ccc(C)s2)C[C@@H]1CO | -1.652%
CCc1cnc(CN(C)C2CCN(CCCS(=O)(=O)NC)C2)o1 (stereo not drawn) | 0.7168%
C=C(C)COc1ccccc1NC(=O)N1CCCCC1CO (stereo not drawn) | -0.9877%
CSCc1noc(CNC(=O)C2CCN(C(=O)C3CC3)CC2)n1 | 8.777%
Cc1nn(C)c(N2CCOCC2)c1CNC(c1ccccc1)C1CC1 (stereo not drawn) | 2.007%
O=C(c1cc2ccccc2[nH]c1=O)N1CCC2(CCCNC2)C1 (stereo not drawn) | -1.782%
Cc1nc(CN2CCCC2Cn2cncn2)no1 (stereo not drawn) | 3.076%
CN(C)CCN1C(=O)CCCC12CCCN(Cc1cccs1)C2 (stereo not drawn) | -2.907%
O=C(Nc1cccc(F)c1)N1CCC(CO)(Nc2ccccc2)CC1 | -1.223%
Cc1ccc(C(=O)N(C)Cc2cscn2)c(=O)[nH]1 | -3.708%
CCn1c(CN(C)C(=O)c2ccc(O)nc2)nc2ccccc21 | -5.448%
COCCN(C)C(=O)c1ccc2onc(-c3coc(C)n3)c2c1 | -3.455%
CN1CCOC(CN(C(=O)Cc2ccccc2F)c2nccs2)C1 (stereo not drawn) | 5.151%
CN(C)c1ccc(NC(=O)NCc2ccccn2)cn1 | 6.236%
COCCCNC(=O)C(C)(C)N(C)C1CCCC1 | -1.769%
CCN1CCC(N2C[C@@H](C(=O)O)[C@H](c3cccc(OC)c3)C2)CC1 | -4.156%
O=C1CCC2(CCCN(C(=O)c3cnccn3)CC2)N1 (stereo not drawn) | 5.255%
CN(Cc1ccccn1)C1CCCN(c2cccnn2)C1 (stereo not drawn) | 13.98%
CCc1c(C)nn2c(O)cc(C3CCN(C(=O)c4cnn(C)c4)C3)nc12 (stereo not drawn) | -1.762%
CN1C(=O)CC(c2ccccc2)C12CCN(c1ncc(F)cn1)CC2 (stereo not drawn) | -8.258%
COCC1CCCCN1C(=O)c1cc(-c2cccc(OC)c2)n[nH]1 (stereo not drawn) | -0.4128%
O=C1COC2(CCN(C(=O)c3ccoc3)CC2)CN1Cc1cccnc1 | -3.151%
Cc1cc(CNC(=O)NCC(O)c2cccc(F)c2)no1 (stereo not drawn) | -4.219%
CN(C)CCC1CCN(c2cc(N3CCCC3CO)ncn2)CC1 (stereo not drawn) | 10.12%
Cn1c(=O)[nH]c(=O)c2c1nc1n2CC(c2ccc(Br)cc2)O1 (stereo not drawn) | -12.72%
Cc1ccc(NCCCNC(=O)C2CCCN(Cc3ccco3)C2)nc1 (stereo not drawn) | -0.7276%
CCc1nnc2n1CC(CNCc1nc(-c3ccsc3)no1)CC2 (stereo not drawn) | -3.641%
COCCOc1nc(-c2ccccc2Cl)no1 | 2.185%
CCc1nc(C2CCCN2CC(=O)Nc2c(C)nn(C)c2C)no1 (stereo not drawn) | 5.346%
COc1ccc(C(=O)N2CCN(C(=O)c3csc(C(C)C)n3)CC2)cc1 | 2.517%
CC(C)c1nccn1C1CCCN(C(=O)c2cccc3c2OCO3)C1 (stereo not drawn) | 0.07825%
CC(C)OCCCNC(=O)N(C)C(C)c1ccc(-n2cncn2)cc1 (stereo not drawn) | 5.348%
Cn1ccnc1CN1CCCN(C(=O)C2(C#N)CCCCC2)CC1 | 2.119%
CCN(CC)Cc1cnc2n1CCN(Cc1c(C)noc1C)CC2 | 3.85%
CN(C)CCOCC1CN(Cc2ccc(F)cc2)Cc2nnn(C)c21 (stereo not drawn) | -9.165%
CC(=O)NCC(=O)N1CCOC(c2cccc(N)n2)C1 (stereo not drawn) | 8.084%
COCC(=O)N1CCN(S(=O)(=O)c2ccccc2)[C@H]2CS(=O)(=O)C[C@H]21 | -1.762%
CCN(CC(=O)NC)S(=O)(=O)N1CCCCC1 | -0.277%
O=C1CCC(C(=O)Nc2ccc(=O)n(Cc3ccc(Cl)c(Cl)c3)c2)N1 (stereo not drawn) | 2.719%
O=C(CN1CCC(c2ccnn2CCO)CC1)NCC1CC1 | -0.07868%
N#CCCN(C(=O)CCc1cscn1)c1ccc2c(c1)OCCO2 | 5.624%
NC(=O)c1ccc(-c2nc3c(c(=O)[nH]2)CCNC3)cc1 | -4.326%
CC(=O)N1CCC2(CCN(Cc3ccccn3)C2=O)C1 (stereo not drawn) | -2.596%
COc1c(CNCCNC(=O)c2cccs2)c(C)nn1C | -5.962%
CC(C)c1noc(CCCC(=O)N2CCN(S(C)(=O)=O)CC2)n1 | -6.789%
CCc1ccc(C(=O)O)cc1S(=O)(=O)N(C)c1cccc(C#N)c1 | -4.069%
Cc1ccc(N2CCCN(C(=O)c3n[nH]c4c3CCC4)CC2)nn1 | 0.9288%
Nc1cc(-c2cc[nH]n2)nc(N2CCCC2)n1 | -2.441%
COCc1c(C(=O)N2CCCC(N(C)Cc3ccccc3)C2)noc1C (stereo not drawn) | 1.715%
CN1CCC2(CC1)OC(C(=O)NCc1cccnc1)Cn1ccnc12 (stereo not drawn) | -1.876%
COc1ccc2[nH]c(C[C@@H]3C[C@@H](C(C)C)[C@H](CN(C)C)C=C3C)nc2c1 | -0.8283%
CC(C)(C#N)CCCS(=O)(=O)c1nccn1-c1cccc(F)c1 | 3.633%
CCCc1nc(C)cc(N2CCC3(CCC(=O)N(CCCO)C3)CC2)n1 | -0.7916%
CCCN1CCCN(S(=O)(=O)c2cnc3onc(C)c3c2)CC1 | -0.9238%
Cc1nc(CN2Cc3nccn3CC(CN3CCCC3)C2)cs1 (stereo not drawn) | 2.365%
CCn1nc(C)c(NC(=O)CN2CC[C@@H](F)C2)c1C | 0.122%
CCN(CC1CCCN(CCc2cccc(OC)c2)C1)C(=O)CN(C)C (stereo not drawn) | -1.083%
CCc1nc(C2CCCN2C(=O)c2cc[nH]n2)no1 (stereo not drawn) | -10.43%
CCC[C@H]1CN(C2CCOCC2)C[C@@H]1NC(=O)CCc1cnccn1 | 6.49%
COCC(O)CN(C)c1ccnc2ccc(Cl)cc12 (stereo not drawn) | 1.296%
O=S1(=O)COCCN1Cc1ccc(F)c(C(F)(F)F)c1 | 3.081%
Cn1cc(C#N)cc1C(=O)NC1(C#N)CCSCC1 | 4.438%
c1ccc(COCCN2CCc3[nH]cnc3C2c2ccco2)cc1 (stereo not drawn) | -2.346%
CS(=O)(=O)N1CC[C@@H]2OC(COCC(=O)N3CCCC3)CC[C@@H]21 (stereo partly drawn) | -1.502%

For reference, 8 entries once more:

For CN(C)CCOCC1CN(Cc2ccc(F)cc2)Cc2nnn(C)c21 (stereo not drawn) the result was -9.165%.
For COCC(O)CN(C)c1ccnc2ccc(Cl)cc12 (stereo not drawn) the result was 1.296%.
For O=C(Nc1cccc(F)c1)N1CCC(CO)(Nc2ccccc2)CC1 the result was -1.223%.
For COc1c(CNCCNC(=O)c2cccs2)c(C)nn1C the result was -5.962%.
For Cc1nc(CN2Cc3nccn3CC(CN3CCCC3)C2)cs1 (stereo not drawn) the result was 2.365%.
For Cc1nc(CN2CCCC2Cn2cncn2)no1 (stereo not drawn) the result was 3.076%.
For Nc1cc(-c2cc[nH]n2)nc(N2CCCC2)n1 the result was -2.441%.
For COCCCNC(=O)C(C)(C)N(C)C1CCCC1 the result was -1.769%.